PubChem BioAssay AID743121 – NCATS – 2013

Purpose: 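Genes whose silencing strengthens cell killing by camptothecin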 (primary screen)
System: MDA-MB-231 cells, a human breast cancer line
Reagent: single siRNA against human genes, 20 nM siRNA (0.8 pmol per well)
Duration: 120 h (drug added 48 h after transfection, read 72 h later)
Treatment: camptothecin 20 nM (about EC30) for 72 h; vehicle 0.1% DMSO in parallel plates
Detection: 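CellTiter-Glo ATP signal, scaled to control siRNA as percent viability; sensitisation given as log2 of untreated divided by camptothecin-treated viability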
Scale: log2 vehicle/camptothecin viability: higher = stronger sensitisation to camptothecin; viability with camptothecin: higher = more viable cells
Units: viability with camptothecin in % of control
Active means: 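Each gene scored by redundant siRNA activity (RSA) over its individual siRNA ratios; a gene is called active at p < 0.001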
This is one part, drawn at random, of about 26,000 reagents tested. 167 of all reagents (0.63%) count as active. 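Calls are per gene from RSA p-values that are not deposited; an individual active-marked siRNA can sensitise only weakly.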 The numbers tell different reagents against one gene apart. Further read-outs or replicates are left out here.

Knock-down of LTB4R #1 resulted in: log2 vehicle/camptothecin viability 0.343; viability with camptothecin 47; inactive. Against LTB4R #2, the values are log2 vehicle/camptothecin viability -0.111; viability with camptothecin 75.1; inactive. After knock-down of LTB4R #3, the record shows log2 vehicle/camptothecin viability -0.0232; viability with camptothecin 105; inactive. Against LTB4R #4 the deposit lists log2 vehicle/camptothecin viability -0.267; viability with camptothecin 81.2; inactive. Knock-down of LTB4R #5 gave: log2 vehicle/camptothecin viability -0.307; viability with camptothecin 80.6; inactive. Depletion of TAF15 #1 came out at: log2 vehicle/camptothecin viability -0.106; viability with camptothecin 99.1; inactive.

After knock-down of TAF15 #2 the results were log2 vehicle/camptothecin viability -0.174; viability with camptothecin 93.3; inactive. Silencing of TAF15 #3 came out at: log2 vehicle/camptothecin viability -0.119; viability with camptothecin 71.8; inactive. After knock-down of EPS8L2 #1 the results were log2 vehicle/camptothecin viability -0.214; viability with camptothecin 63.4; inactive. With knock-down of EPS8L2 #2, the record shows log2 vehicle/camptothecin viability -0.335; viability with camptothecin 88.8; inactive. Silencing of EPS8L2 #3 came out at: log2 vehicle/camptothecin viability 0.351; viability with camptothecin 50.9; inactive. For EPS8L2 #4, the entry reads log2 vehicle/camptothecin viability -0.337; viability with camptothecin 85.7; inactive.

For GATM #1 the deposit lists log2 vehicle/camptothecin viability -0.0544; viability with camptothecin 102; inactive. Knock-down of GATM #2 resulted in: log2 vehicle/camptothecin viability 0.326; viability with camptothecin 67.2; inactive. Depletion of GATM #3 gave: log2 vehicle/camptothecin viability -0.174; viability with camptothecin 81.9; inactive.

Ordered by “log2 vehicle/camptothecin viability” (highest first): some entries from above
TAF15 #1 → log2 vehicle/camptothecin viability: -0.106; viability with camptothecin: 99.1; activity call: inactive
TAF15 #3 → log2 vehicle/camptothecin viability: -0.119; viability with camptothecin: 71.8; activity call: inactive
TAF15 #2 → log2 vehicle/camptothecin viability: -0.174; viability with camptothecin: 93.3; activity call: inactive
LTB4R #5 → log2 vehicle/camptothecin viability: -0.307; viability with camptothecin: 80.6; activity call: inactive

More entries follow:
TULP1 #1 showed log2 vehicle/camptothecin viability -0.171; viability with camptothecin 96.8; inactive. After knock-down of TULP1 #2, the record shows log2 vehicle/camptothecin viability -0.257; viability with camptothecin 101; inactive. For TULP1 #3, the entry reads log2 vehicle/camptothecin viability 0.0618; viability with camptothecin 78.6; inactive. With knock-down of TULP1 #4 the results were log2 vehicle/camptothecin viability -0.123; viability with camptothecin 85; inactive. Depletion of YWHAE #1 came out at: log2 vehicle/camptothecin viability 0.0849; viability with camptothecin 87.1; inactive. Depletion of YWHAE #2 resulted in: log2 vehicle/camptothecin viability -0.311; viability with camptothecin 62.7; inactive.

Silencing of YWHAE #3 resulted in: log2 vehicle/camptothecin viability -0.0133; viability with camptothecin 15.7; inactive. Silencing of YWHAE #4 came out at: log2 vehicle/camptothecin viability -0.176; viability with camptothecin 63.9; inactive. For YWHAE #5 the deposit lists log2 vehicle/camptothecin viability -0.241; viability with camptothecin 21.3; inactive.
